# These are yes or no findings as the source states them, for the method shown. Binding seen in cells or lysates may run through a third protein. Some entries that bind do so weakly or less than the wild type.
# B1: hypo-phosphorylated Rb (retinoblastoma tumor suppressor) (protein, UniProt P13405 1-921)
# chain: MPPKAPRRAAAAEPPPPPPPPPREDDPAQDSGPEELPLARLEFEEIEEPEFIALCQKLKVPDHVRERAWLTWEKVSSVDGILEGYIQKKKELWGICIFIAAVDLDEMPFTFTELQKSIETSVYKFFDLLKEIDTSTKVDNAMSRLLKKYNVLCALYSKLERTCELIYLTQPSSALSTEINSMLVLKISWITFLLAKGEVLQMEDDLVISFQLMLCVVDYFIKFSPPALLREPYKTAAIPINGSPRTPRRGQNRSARIAKQLENDTRIIEVLCKEHECNIDEVKNVYFKNFIPFINSLGIVSSNGLPEVESLSKRYEEVYLKNKDLDARLFLDHDKTLQTDPIDSFETERTPRKNNPDEEANVVTPHTPVRTVMNTIQQLMVILNSASDQPSENLISYFNNCTVNPKENILKRVKDVGHIFKEKFANAVGQGCVDIGVQRYKLGVRLYYRVMESMLKSEEERLSIQNFSKLLNDNIFHMSLLACALEVVMATYSRSTLQHLDSGTDLSFPWILNVLNLKAFDFYKVIESFIKVEANLTREMIKHLERCEHRIMESLAWLSDSPLFDLIKQSKDGEGPDNLEPACPLSLPLQGNHTAADMYLSPLRSPKKRTSTTRVNSAANTETQAASAFHTQKPLKSTSLALFYKKVYRLAYLRLNTLCARLLSDHPELEHIIWTLFQHTLQNEYELMRDRHLDQIMMCSMYGICKVKNIDLKFKIIVTAYKDLPHAAQETFKRVLIREEEFDSIIVFYNSVFMQRLKTNILQYASTRPPTLSPIPHIPRSPYKFSSSPLRIPGGNIYISPLKSPYKISEGLPTPTKMTPRSRILVSIGESFGTSEKFQKINQMVCNSDRVLKRSAEGGNPPKPLKKLRFDIEGADEADGSKHLPAESKFQQKLAEMTSTRTRMQKQRMNESKDVSNKEEK
# modifications: hypo-phosphorylated (so in the source); sites not given for this experiment
# Target: T1, Inhibitor of DNA binding 2 (Id2) (UniProt P41136)
# T1 sequence: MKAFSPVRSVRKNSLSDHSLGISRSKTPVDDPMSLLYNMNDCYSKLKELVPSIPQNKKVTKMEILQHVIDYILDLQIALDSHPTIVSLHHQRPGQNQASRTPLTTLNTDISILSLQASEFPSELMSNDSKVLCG
# Experiment: co-IP; immunoprecipitation with Id2 antibodies from lysates of suspended (anchorage-independent) anoikis resistant cells; hypo-phosphorylated Rb detected in the precipitate
binder,measurement,value
B1,binding,binds

# From publication PMC9122823
